Measured values from the supplement of paper PMC11006884.
This is a selection; strong and weak results do not stand in their true shares.

Sequences of proteins named here, by UniProt entry; tags and fusion partners are left off. A change or cut given only in a name is not applied to a line headed by its entry.
UniProt Q04721: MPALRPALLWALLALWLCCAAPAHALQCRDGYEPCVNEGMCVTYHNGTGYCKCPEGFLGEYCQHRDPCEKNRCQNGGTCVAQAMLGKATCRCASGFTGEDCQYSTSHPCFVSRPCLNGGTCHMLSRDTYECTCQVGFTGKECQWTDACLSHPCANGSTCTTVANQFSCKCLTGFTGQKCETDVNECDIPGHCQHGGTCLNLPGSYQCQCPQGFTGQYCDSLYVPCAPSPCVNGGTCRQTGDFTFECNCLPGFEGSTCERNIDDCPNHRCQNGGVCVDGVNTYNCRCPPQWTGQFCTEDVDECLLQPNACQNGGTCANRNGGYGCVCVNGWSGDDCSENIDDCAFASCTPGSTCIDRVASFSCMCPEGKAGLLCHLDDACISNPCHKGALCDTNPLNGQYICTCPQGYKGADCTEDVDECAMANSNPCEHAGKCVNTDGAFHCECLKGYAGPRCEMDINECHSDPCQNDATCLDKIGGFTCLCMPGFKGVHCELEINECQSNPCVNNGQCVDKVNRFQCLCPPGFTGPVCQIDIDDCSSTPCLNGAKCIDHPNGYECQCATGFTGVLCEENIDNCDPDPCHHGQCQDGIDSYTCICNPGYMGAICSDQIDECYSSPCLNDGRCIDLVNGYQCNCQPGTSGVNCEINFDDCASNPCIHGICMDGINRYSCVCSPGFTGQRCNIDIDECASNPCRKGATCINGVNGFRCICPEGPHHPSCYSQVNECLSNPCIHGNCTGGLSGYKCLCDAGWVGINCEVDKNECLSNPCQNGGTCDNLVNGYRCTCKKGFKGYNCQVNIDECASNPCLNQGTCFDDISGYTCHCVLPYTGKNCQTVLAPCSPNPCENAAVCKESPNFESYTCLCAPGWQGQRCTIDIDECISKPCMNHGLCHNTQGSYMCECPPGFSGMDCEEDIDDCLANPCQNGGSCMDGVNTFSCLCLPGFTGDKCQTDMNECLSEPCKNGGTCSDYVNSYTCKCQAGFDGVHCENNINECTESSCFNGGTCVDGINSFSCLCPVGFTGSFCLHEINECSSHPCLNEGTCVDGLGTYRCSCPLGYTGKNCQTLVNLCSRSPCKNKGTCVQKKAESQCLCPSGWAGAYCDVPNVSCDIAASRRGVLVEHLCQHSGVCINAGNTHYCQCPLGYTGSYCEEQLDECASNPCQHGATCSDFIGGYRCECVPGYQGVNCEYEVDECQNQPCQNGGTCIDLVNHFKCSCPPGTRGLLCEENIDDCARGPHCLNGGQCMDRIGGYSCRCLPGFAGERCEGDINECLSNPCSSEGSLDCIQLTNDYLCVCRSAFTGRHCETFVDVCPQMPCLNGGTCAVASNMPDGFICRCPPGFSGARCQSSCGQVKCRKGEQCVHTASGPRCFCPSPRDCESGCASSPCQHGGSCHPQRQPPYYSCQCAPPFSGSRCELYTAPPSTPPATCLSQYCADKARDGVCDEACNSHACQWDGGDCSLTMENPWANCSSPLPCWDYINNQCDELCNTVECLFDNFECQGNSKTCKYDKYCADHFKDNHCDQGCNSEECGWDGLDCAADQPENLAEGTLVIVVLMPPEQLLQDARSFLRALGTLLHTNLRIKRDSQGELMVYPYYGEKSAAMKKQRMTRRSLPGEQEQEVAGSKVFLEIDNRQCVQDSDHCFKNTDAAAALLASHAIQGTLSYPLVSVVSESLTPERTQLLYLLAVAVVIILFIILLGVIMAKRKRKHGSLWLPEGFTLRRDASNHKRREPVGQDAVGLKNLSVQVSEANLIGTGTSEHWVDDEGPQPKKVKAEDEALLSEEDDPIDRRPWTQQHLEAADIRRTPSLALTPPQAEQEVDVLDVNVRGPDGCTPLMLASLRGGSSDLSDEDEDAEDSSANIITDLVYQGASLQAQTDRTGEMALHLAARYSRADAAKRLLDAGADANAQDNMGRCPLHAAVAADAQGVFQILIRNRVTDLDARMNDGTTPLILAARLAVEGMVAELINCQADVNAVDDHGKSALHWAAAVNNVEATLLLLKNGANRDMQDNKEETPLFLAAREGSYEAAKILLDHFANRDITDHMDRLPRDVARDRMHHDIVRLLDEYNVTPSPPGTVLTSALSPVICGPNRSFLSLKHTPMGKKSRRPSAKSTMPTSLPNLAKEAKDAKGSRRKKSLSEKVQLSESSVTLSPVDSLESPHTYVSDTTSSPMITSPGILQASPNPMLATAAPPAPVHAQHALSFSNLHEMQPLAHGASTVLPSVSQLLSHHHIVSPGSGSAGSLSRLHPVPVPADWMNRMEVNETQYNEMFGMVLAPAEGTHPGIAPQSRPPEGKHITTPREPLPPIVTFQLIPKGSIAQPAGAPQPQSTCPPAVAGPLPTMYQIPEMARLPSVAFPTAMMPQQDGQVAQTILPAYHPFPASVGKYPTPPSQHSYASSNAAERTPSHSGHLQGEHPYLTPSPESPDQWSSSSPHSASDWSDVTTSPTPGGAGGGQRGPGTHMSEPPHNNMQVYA
UniProt Q12849: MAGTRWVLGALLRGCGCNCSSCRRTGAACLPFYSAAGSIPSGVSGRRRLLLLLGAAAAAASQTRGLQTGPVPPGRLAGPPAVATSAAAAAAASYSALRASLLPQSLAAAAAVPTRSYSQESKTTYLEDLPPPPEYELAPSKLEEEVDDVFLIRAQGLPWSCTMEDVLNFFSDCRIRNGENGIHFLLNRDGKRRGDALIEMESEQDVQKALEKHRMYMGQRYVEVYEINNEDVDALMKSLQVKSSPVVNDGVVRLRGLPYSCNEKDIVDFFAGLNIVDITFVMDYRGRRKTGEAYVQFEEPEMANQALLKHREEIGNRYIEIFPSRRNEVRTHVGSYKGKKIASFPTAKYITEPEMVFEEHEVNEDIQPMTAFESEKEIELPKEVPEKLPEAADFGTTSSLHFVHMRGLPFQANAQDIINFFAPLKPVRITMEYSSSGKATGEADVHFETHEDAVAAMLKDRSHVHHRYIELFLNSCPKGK
UniProt Q08J23, whole entry, looked up: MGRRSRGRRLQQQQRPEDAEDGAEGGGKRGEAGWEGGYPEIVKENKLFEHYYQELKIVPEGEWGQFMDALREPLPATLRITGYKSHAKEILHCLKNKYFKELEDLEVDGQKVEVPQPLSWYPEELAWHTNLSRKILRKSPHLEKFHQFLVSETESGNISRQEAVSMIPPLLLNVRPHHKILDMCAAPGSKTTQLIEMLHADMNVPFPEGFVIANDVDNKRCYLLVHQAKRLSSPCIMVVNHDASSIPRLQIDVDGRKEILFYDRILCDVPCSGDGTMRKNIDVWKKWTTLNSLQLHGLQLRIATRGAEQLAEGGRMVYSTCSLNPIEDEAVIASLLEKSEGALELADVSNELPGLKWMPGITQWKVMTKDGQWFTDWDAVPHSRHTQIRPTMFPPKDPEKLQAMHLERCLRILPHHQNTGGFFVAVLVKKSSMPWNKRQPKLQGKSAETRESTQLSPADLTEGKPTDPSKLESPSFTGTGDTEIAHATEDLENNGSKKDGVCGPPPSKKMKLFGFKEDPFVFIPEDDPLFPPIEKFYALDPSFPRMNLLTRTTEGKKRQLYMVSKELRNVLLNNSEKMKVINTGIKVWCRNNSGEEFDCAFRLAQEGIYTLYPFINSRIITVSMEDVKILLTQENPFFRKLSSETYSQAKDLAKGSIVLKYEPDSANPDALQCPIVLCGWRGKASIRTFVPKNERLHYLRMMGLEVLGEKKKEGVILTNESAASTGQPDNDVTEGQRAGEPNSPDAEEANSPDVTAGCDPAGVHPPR
UniProt Q02952: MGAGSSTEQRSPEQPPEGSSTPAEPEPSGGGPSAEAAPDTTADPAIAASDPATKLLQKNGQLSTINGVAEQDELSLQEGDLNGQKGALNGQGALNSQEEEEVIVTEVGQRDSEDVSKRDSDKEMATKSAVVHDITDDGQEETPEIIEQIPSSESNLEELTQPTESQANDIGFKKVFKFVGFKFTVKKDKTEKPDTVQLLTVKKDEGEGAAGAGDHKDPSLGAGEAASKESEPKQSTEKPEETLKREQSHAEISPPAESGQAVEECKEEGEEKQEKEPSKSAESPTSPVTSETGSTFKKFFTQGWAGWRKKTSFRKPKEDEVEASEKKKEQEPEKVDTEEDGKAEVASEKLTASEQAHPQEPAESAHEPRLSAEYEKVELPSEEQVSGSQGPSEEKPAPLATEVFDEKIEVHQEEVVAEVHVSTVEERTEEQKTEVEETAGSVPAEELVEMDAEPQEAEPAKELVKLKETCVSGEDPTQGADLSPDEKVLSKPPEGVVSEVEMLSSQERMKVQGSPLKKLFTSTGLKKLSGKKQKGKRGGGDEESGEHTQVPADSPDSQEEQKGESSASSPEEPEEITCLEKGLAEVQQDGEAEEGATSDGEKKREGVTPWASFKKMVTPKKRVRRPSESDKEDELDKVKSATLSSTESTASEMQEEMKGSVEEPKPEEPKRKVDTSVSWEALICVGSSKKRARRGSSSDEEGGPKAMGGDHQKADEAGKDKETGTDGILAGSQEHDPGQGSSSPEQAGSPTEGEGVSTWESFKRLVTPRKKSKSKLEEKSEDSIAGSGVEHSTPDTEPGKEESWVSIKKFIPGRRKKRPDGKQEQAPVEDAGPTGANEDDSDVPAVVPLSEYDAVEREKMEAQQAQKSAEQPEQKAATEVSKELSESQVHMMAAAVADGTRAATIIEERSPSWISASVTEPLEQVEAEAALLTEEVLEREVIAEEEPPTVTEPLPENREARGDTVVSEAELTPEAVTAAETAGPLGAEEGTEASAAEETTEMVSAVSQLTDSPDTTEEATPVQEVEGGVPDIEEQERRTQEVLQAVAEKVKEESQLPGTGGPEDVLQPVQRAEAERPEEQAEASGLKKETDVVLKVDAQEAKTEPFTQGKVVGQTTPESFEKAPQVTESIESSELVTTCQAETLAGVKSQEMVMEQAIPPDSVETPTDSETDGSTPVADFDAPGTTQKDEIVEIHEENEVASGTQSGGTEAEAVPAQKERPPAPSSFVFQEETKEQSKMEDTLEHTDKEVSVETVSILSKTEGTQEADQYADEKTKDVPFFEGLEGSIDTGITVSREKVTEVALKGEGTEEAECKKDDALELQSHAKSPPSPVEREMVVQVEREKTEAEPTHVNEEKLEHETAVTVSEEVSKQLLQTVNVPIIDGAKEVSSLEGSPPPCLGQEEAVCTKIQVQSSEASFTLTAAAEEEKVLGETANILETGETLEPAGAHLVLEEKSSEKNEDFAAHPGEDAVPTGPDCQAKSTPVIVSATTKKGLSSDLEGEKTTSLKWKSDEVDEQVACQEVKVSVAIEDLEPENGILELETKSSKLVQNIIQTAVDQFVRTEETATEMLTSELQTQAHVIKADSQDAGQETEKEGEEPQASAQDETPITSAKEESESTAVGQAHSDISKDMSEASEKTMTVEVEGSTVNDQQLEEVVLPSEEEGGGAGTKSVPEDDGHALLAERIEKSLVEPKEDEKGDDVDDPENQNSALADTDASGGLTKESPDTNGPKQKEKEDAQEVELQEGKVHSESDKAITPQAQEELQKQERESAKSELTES
UniProt Q13148, whole entry, looked up: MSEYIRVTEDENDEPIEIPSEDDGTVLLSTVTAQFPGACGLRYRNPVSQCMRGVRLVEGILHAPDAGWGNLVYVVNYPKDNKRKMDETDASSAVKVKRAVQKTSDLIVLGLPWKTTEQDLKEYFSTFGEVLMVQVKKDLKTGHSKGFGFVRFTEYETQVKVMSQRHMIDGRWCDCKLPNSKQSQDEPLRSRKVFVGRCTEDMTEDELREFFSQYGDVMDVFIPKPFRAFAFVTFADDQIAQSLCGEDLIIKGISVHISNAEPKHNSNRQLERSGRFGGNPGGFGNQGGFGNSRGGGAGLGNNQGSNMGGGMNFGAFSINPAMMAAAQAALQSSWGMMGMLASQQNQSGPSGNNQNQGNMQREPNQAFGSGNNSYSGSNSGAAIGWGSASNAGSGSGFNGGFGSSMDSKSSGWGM
UniProt Q04760: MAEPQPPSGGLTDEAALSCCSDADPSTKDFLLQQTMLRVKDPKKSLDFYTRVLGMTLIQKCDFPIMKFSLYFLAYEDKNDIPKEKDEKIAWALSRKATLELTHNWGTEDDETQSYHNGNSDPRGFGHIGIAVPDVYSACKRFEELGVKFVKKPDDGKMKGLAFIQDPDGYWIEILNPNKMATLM
UniProt Q13098: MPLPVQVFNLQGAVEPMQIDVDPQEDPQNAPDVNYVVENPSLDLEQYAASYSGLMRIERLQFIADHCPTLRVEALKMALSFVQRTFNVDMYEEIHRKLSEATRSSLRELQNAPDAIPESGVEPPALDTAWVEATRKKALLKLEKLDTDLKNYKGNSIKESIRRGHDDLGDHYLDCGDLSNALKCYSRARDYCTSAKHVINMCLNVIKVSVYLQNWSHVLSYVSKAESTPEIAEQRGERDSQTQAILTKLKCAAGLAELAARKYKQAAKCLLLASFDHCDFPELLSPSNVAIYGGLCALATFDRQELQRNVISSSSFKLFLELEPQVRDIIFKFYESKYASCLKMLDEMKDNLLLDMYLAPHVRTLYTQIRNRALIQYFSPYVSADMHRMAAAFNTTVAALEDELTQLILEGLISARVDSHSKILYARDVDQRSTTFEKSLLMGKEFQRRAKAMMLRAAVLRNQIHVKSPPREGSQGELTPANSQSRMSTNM

Compound: COC(=O)C#Cc1ccccc1 [methyl 3-phenylpropiolate]
Assay: log2 ratio of iodoacetamide-alkyne labeling of the cysteine site, DMSO over compound (competition); higher = stronger covalent engagement of the cysteine by the compound, active = 1 or more
Conditions: 500 µM; treatment time 1 h; system: HEK293T cell lysate
How it was run: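 After 1 h at ambient temperature with vehicle or electrophile (500 µM), HEK293T lysate (2 mg/mL) was labelled for 1 h with iodoacetamide alkyne and clicked to sCIP-TMT reagents. Pooled samples were trypsin-digested overnight at 37 °C, streptavidin-enriched, acid-eluted and analysed by Orbitrap Eclipse LC-MS/MS with FAIMS, then quantified in FragPipe over three replicates with duplicate channels. A cysteine's log2 competition ratio is its mean control-channel over mean compound-channel reporter intensity. Cysteines quantified in only one replicate were not included.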

| Target | log2 ratio of iodoacetamide-alkyne labeling |
| --- | --- |
| NCBP1 C36 (UniProt Q09161) | inactive: 0.318 |
| FKBP4 C396 (UniProt Q02790) | inactive: 0.0815 |
| ILF3 C203 (UniProt Q12906) | inactive: 0.445 |
| OS9 C246 (UniProt Q13438) | inactive: 0.57 |
| NOTCH2 C1357 (UniProt Q04721) | active: 1.55 |
| COASY C357 (UniProt Q13057) | inactive: 0.165 |
| CHAF1A C492 (UniProt Q13111) | inactive: 0.177 |
| GRSF1 C29 (UniProt Q12849) | inactive: 0.434 |
| GABPB1 C331 (UniProt Q06547) | inactive: 0.198 |
| NSUN2 C678 (UniProt Q08J23) | inactive: 0.247 |
| RING1 C69 (UniProt Q06587) | inactive: 0.171 |
| GALNT2 C229 (UniProt Q10471) | inactive: 0.0139 |
| ATM C755 (UniProt Q13315) | inactive: -0.0141 |
| UniProt Q12948_C529 | inactive: 0.755 |
| TP53BP1 C772 (UniProt Q12888) | inactive: 0.224 |
| TRIM28 C628 (UniProt Q13263) | inactive: 0.111 |
| AKAP12 C1139 (UniProt Q02952) | inactive: 0.521 |
| TARDBP C198 (UniProt Q13148) | inactive: 0.069 |
| LAMTOR4 C51 (UniProt Q0VGL1) | inactive: 0.577 |

Random excerpt: 3 entries already listed.

| Target | log2 ratio of iodoacetamide-alkyne labeling |
| --- | --- |
| TRIM28 C628 (UniProt Q13263) | inactive: 0.111 |
| OS9 C246 (UniProt Q13438) | inactive: 0.57 |
| GRSF1 C29 (UniProt Q12849) | inactive: 0.434 |

Next results.

| Target | log2 ratio of iodoacetamide-alkyne labeling |
| --- | --- |
| NCBP1 C503 (UniProt Q09161) | inactive: 0.295 |
| GTF3C1 C1977 (UniProt Q12789) | inactive: 0.746 |
| UniProt Q07955_C16 | inactive: -0.0793 |
| NSUN2 C758 (UniProt Q08J23) | inactive: 0.00491 |
| GLO1 C139 (UniProt Q04760) | inactive: -0.211 |
| AHNAK C1967 (UniProt Q09666) | inactive: 0.463 |
| PTK7 C911 (UniProt Q13308) | inactive: 0.605 |
| NSUN2 C321 (UniProt Q08J23) | inactive: -0.091 |
| PMPCA C466 (UniProt Q10713) | inactive: 0.00592 |
| AKAP12 C684 (UniProt Q02952) | inactive: 0.0232 |
| GPS1 C251 (UniProt Q13098) | inactive: 0.23 |
| AKAP12 C470 (UniProt Q02952) | inactive: 0.121 |
| CHAF1A C79 (UniProt Q13111) | inactive: 0.198 |
| PSMD2 C251 (UniProt Q13200) | inactive: 0.0201 |
| EIF4G1 C934 (UniProt Q04637) | inactive: 0.131 |
| UniProt Q12904_C161 | inactive: 0.0283 |
| DHX9 C469 (UniProt Q08211) | inactive: 0.355 |
| GRSF1 C173 (UniProt Q12849) | inactive: 0.484 |
